Data published in patent publication US20080227694A1.
These are yes or no findings as the source states them, for the method shown. Binding seen in cells or lysates may run through a third protein. These calls come from enrichment with a bait or labelling near it, and not all partners need be listed. Sequences can lack the tags named with a protein.

Molecular target: proteasome (protein group which composes the proteasome)
Test: anti-FLAG immunoprecipitation from transfected HEK293T cells, partner identified by tandem mass spectrometry

| binding | Binder |
| --- | --- |
| binds | FLAG-tagged AWP1 (recombinant AWP1 with N-terminal FLAG recognition sequence, expressed in HEK293T cells) (protein) MDYKDDDDKAQETNHSQVPMLCSTGCGFYGNPRTNGMCSVCYKEHLQRQNSSNGRISPPATSVSSLSESLPVQCTDGSVPEAQSALDSTSSSMQPSPVSNQSLLSESVASSQLDSTSVDKAVPETEDVQASVSDTAQQPSEEQSKSLEKPKQKKNRCFMCRKKVGLTGFECRCGNVYCGVHRYSDVHNCSYNYKADAAEKIRKENPVVVGEKIQKI |
| binds | FLAG-tagged ZNF216 (recombinant ZNF216 with N-terminal FLAG recognition sequence, expressed in HEK293T cells) (protein) MDYKDDDDKAQETNQTPGPMLCSTGCGFYGNPRTNGMCSVCYKEHLQRQQNSGRMSPMGTASGSNSPTSDSASVQRADTSLNNCEGAAGSTSEKSRNVPVAALPVTQQMTEMSISREDKITTPKTEVSEPVVTQPSPSVSQPSTSQSEEKAPELPKPKKNRCFMCRKKVGLTGFDCRCGNLFCGLHRYSDKHNCPYDYKAEAAAKIRKENPVVVAEKIQRI |
